PubChem BioAssay AID602196 | INSERM – 2012
In all, the deposit lists about 23,000 reagents; below is a part drawn at random. 455 of all reagents (2%) count as active. 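Active includes both protection and sensitisation; some change values fall well beyond the stated -50 to +50 range.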 A number with no mark means an inactive call. Not all columns of the deposit are shown. No sequences are given here. The record does not give: the amount of reagent.

Aim: 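Knock-downs that protect lung cancer cells from cisplatin or sensitise them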
Cell system: human A549 lung cancer cells
Knock-down reagent: siRNA pair against human genes
Time to read-out: 48 h transfection before cisplatin; time from cisplatin to read-out not stated
Treatment: cisplatin at a dose killing half of control-siRNA cells; exact dose and duration not given
Measurement: 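Shift in cisplatin death relative to control siRNA, from -50 (all cells die) to +50 (no cells die); siRNAs harmful on their own scored 0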
Scale: two-siRNA summed score (-2 to +2): higher = both siRNAs protect from cisplatin killing; -2 means both sensitise
Active means: 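siRNAs harmful alone (LDH or WST-1) get 0; others get +1 for less and -1 for more cisplatin killing; genes are active when the two siRNAs give the same sign, summing to ±2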
Meaning of the calls: active = both siRNAs shift cisplatin killing the same way; inactive = no consistent shift, or siRNA harmful alone

With knock-down of ZNF700, the screen gave two-siRNA summed score (-2 to +2) = 0.
For CDKL5 the deposit lists two-siRNA summed score (-2 to +2) = 1.
Knock-down of GOLGA1 came out at: two-siRNA summed score (-2 to +2) = 0.
Against SHANK2 the deposit lists two-siRNA summed score (-2 to +2) = 0.
For THBS1, the values are two-siRNA summed score (-2 to +2) = 0.
With knock-down of H2AC21, the screen gave two-siRNA summed score (-2 to +2) = 1.
Against PCDHGB6 the deposit lists two-siRNA summed score (-2 to +2) = 0.
With knock-down of MAGEB2 the results were two-siRNA summed score (-2 to +2) = 0.
After knock-down of LOC152667, the record shows two-siRNA summed score (-2 to +2) = 0.
For GALK2 the deposit lists two-siRNA summed score (-2 to +2) = 0.
For C3orf38, the entry reads two-siRNA summed score (-2 to +2) = 1.
Against LOC441360 the deposit lists two-siRNA summed score (-2 to +2) = 0.
With knock-down of SERINC2 the results were two-siRNA summed score (-2 to +2) = 0.
With knock-down of ZNF385D, the record shows two-siRNA summed score (-2 to +2) = 0.
Against PPT2 the deposit lists two-siRNA summed score (-2 to +2) = 1.
GMPR scored two-siRNA summed score (-2 to +2) = 0.
For LOC440504, the entry reads two-siRNA summed score (-2 to +2) = 1.
Against COL2A1, the values are two-siRNA summed score (-2 to +2) = 0.
Against LOC401106, the values are two-siRNA summed score (-2 to +2) = 0.
CEP83 scored two-siRNA summed score (-2 to +2) = 0.
For LOC344328 the deposit lists two-siRNA summed score (-2 to +2) = 1.
ACACB showed two-siRNA summed score (-2 to +2) = 0.
With knock-down of FOXM1, the record shows two-siRNA summed score (-2 to +2) = 0.
ASAP3 showed two-siRNA summed score (-2 to +2) = 0.
Against FLJ34077, the values are two-siRNA summed score (-2 to +2) = 1.
Silencing of OR13C4 gave: two-siRNA summed score (-2 to +2) = 1.
Against LOC440036, the values are two-siRNA summed score (-2 to +2) = 0.
After knock-down of IMPDH2, the screen gave two-siRNA summed score (-2 to +2) = -1.
For AGMO the deposit lists two-siRNA summed score (-2 to +2) = 0.
REEP3 gave two-siRNA summed score (-2 to +2) = -1.
For MRGPRX6P, the entry reads two-siRNA summed score (-2 to +2) = 0.

No new results follow: an excerpt of the list.
ZNF700 | two-siRNA summed score (-2 to +2): 0
CDKL5 | two-siRNA summed score (-2 to +2): 1
GOLGA1 | two-siRNA summed score (-2 to +2): 0
SHANK2 | two-siRNA summed score (-2 to +2): 0
THBS1 | two-siRNA summed score (-2 to +2): 0
